Data as given in PubChem BioAssay AID504764 (Drosophila RNAi Screening Center, 2011)
Screen: 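Knock-downs that raise or lower a Notch target reporter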 (primary screen). Cell system: Drosophila Kc167 cells. Reagent: long dsRNA against Drosophila genes. Timing: about 5 days (4 days dsRNA, then 24 h after transfection). Treatment: transfection of constitutively active membrane-tethered Notch lacking the extracellular domain, read 24 h later. Read-out: 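Firefly luciferase from an E(spl)m3 reporter with active Notch, plus control-promoter and uninduced reporter wells for normalisation; unnormalised counts, duplicate wells a and b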. Reading the numbers: induced reporter light, run 1, well a and induced reporter light, run 1, well b: higher = more light from the Notch target reporter with active Notch; control promoter light, run 1, well a and control promoter light, run 1, well b: higher = more light from the viral control promoter (cell number, transfection, viability); uninduced reporter light, run 1, well a: higher = more light from the Notch target reporter without active Notch. Hit rule: 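Wells with low control signal or poorly matching duplicates excluded; duplicates averaged; per source plate, z beyond ±2 for induced/control log2 ratio or beyond ±1.8 for induced/uninduced marks a hit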. Meaning of the calls: active = modifier hit (raised or lowered Notch signal); inactive = not a hit.
In all, the deposit lists about 22,000 reagents; below is an unselected part of those with a known target gene and a result. Over the whole deposit, 403 (1.9%) are marked active. 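Unnormalised raw counts per well; ratio z-scores behind the hit calls and whether each hit raises or lowers signal are not deposited.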 Not stated in the record: the amount of reagent.

CG13559 [DRSC04197] | induced reporter light, run 1, well a = 1.46e5; induced reporter light, run 1, well b = 1.30e5; control promoter light, run 1, well a = 1.30e5; control promoter light, run 1, well b = 1.38e5; uninduced reporter light, run 1, well a = 8600; outcome = inactive
Hex-t2 (Hexokinase testis 2) [DRSC22517] | outcome = inactive
lms (lateral muscles scarcer) [DRSC06387] | induced reporter light, run 1, well a = 1.81e5; induced reporter light, run 1, well b = 1.52e5; control promoter light, run 1, well a = 2.87e5; control promoter light, run 1, well b = 3.13e5; uninduced reporter light, run 1, well a = 8305; outcome = inactive
CG4716 [DRSC06884] | induced reporter light, run 1, well a = 1.39e5; induced reporter light, run 1, well b = 1.70e5; control promoter light, run 1, well a = 1.48e5; control promoter light, run 1, well b = 1.70e5; uninduced reporter light, run 1, well a = 12605; outcome = inactive
IP3K1 (Inositol 1,4,5-triphosphate kinase 1) [DRSC02734] | induced reporter light, run 1, well a = 2.29e5; induced reporter light, run 1, well b = 2.56e5; control promoter light, run 1, well a = 2.07e5; control promoter light, run 1, well b = 2.05e5; uninduced reporter light, run 1, well a = 19220; outcome = inactive
CG33269 [DRSC10585] | induced reporter light, run 1, well a = 1.18e5; induced reporter light, run 1, well b = 1.09e5; control promoter light, run 1, well a = 1.22e5; control promoter light, run 1, well b = 1.26e5; uninduced reporter light, run 1, well a = 10285; outcome = inactive
CG11444 [DRSC17784] | induced reporter light, run 1, well a = 1.48e5; induced reporter light, run 1, well b = 1.54e5; control promoter light, run 1, well a = 2.37e5; control promoter light, run 1, well b = 2.24e5; uninduced reporter light, run 1, well a = 9945; outcome = inactive
Nep7 (Neprilysin 7) [DRSC15830] | induced reporter light, run 1, well a = 1.80e5; induced reporter light, run 1, well b = 1.55e5; control promoter light, run 1, well a = 1.73e5; control promoter light, run 1, well b = 1.69e5; uninduced reporter light, run 1, well a = 13675; outcome = inactive
Sap-r (Saposin-related) [DRSC16849] | induced reporter light, run 1, well a = 1.68e5; induced reporter light, run 1, well b = 1.89e5; control promoter light, run 1, well a = 2.45e5; control promoter light, run 1, well b = 2.24e5; uninduced reporter light, run 1, well a = 13365; outcome = inactive
mRpS23 (mitochondrial ribosomal protein S23) [DRSC01348] | induced reporter light, run 1, well a = 1.33e5; induced reporter light, run 1, well b = 1.29e5; control promoter light, run 1, well a = 1.57e5; control promoter light, run 1, well b = 1.41e5; uninduced reporter light, run 1, well a = 8910; outcome = inactive
sdk (sidekick) [DRSC18831] | induced reporter light, run 1, well a = 41000; induced reporter light, run 1, well b = 43285; control promoter light, run 1, well a = 56115; control promoter light, run 1, well b = 58715; uninduced reporter light, run 1, well a = 2882; outcome = inactive
CG32832 [DRSC01562] | induced reporter light, run 1, well a = 91740; induced reporter light, run 1, well b = 86120; control promoter light, run 1, well a = 67300; control promoter light, run 1, well b = 53290; uninduced reporter light, run 1, well a = 6615; outcome = inactive
Muc12Ea (Mucin 12Ea) [DRSC19937] | induced reporter light, run 1, well a = 70630; induced reporter light, run 1, well b = 70610; control promoter light, run 1, well a = 1.03e5; control promoter light, run 1, well b = 60120; uninduced reporter light, run 1, well a = 13690; outcome = inactive
fzo (fuzzy onions) [DRSC16954] | induced reporter light, run 1, well a = 1.59e5; induced reporter light, run 1, well b = 1.55e5; control promoter light, run 1, well a = 2.14e5; control promoter light, run 1, well b = 2.21e5; uninduced reporter light, run 1, well a = 14770; outcome = inactive
Ir7a (Ionotropic receptor 7a) [DRSC17866] | induced reporter light, run 1, well a = 88925; induced reporter light, run 1, well b = 77820; control promoter light, run 1, well a = 1.15e5; control promoter light, run 1, well b = 1.43e5; uninduced reporter light, run 1, well a = 7985; outcome = inactive
GstE4 (Glutathione S transferase E4) [DRSC06674] | induced reporter light, run 1, well a = 34790; induced reporter light, run 1, well b = 30640; control promoter light, run 1, well a = 36895; control promoter light, run 1, well b = 29150; uninduced reporter light, run 1, well a = 3295; outcome = inactive
Polr2F (RNA polymerase II, I and III subunit F) [DRSC12366] | induced reporter light, run 1, well a = 37235; induced reporter light, run 1, well b = 38370; control promoter light, run 1, well a = 33670; control promoter light, run 1, well b = 24295; uninduced reporter light, run 1, well a = 4520; outcome = inactive
CG7582 [DRSC16261] | induced reporter light, run 1, well a = 1.71e5; induced reporter light, run 1, well b = 1.51e5; control promoter light, run 1, well a = 1.92e5; control promoter light, run 1, well b = 1.72e5; uninduced reporter light, run 1, well a = 12350; outcome = inactive

2 consecutive records from above, quoted:
Sap-r (Saposin-related) [DRSC16849] | induced reporter light, run 1, well a = 1.68e5; induced reporter light, run 1, well b = 1.89e5; control promoter light, run 1, well a = 2.45e5; control promoter light, run 1, well b = 2.24e5; uninduced reporter light, run 1, well a = 13365; outcome = inactive
mRpS23 (mitochondrial ribosomal protein S23) [DRSC01348] | induced reporter light, run 1, well a = 1.33e5; induced reporter light, run 1, well b = 1.29e5; control promoter light, run 1, well a = 1.57e5; control promoter light, run 1, well b = 1.41e5; uninduced reporter light, run 1, well a = 8910; outcome = inactive
